Laboratory results from PubChem BioAssay AID493014 (National Center for Advancing Translational Sciences (NCATS), 2011).
Some of the results follow. Shown are side measurements of this screen, not its main read-out; they come without a call. The list favours compounds with an active or inconclusive main result. The note in brackets gives the kind of curve behind each potency; many fits are weak.

Experiment: qHTS Assay to Find Inhibitors of Chronic Active B-Cell Receptor Signaling
Conditions: ABC-DLBCL IkBa-CBG/CBR reporter, luminescence ratio (green luciferase fused to IkBa over red control in TMD8 lymphoma cells), 4 h
In short: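 Compounds up to 46 uM were incubated four hours with TMD8 cells whose green CBG68 luciferase is fused to IkappaBalpha; red CBR luminescence normalised the signal, and concentration-effect curves were fitted to fusion, red and ratio data.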

[1] = measured here: CBR red luminescence, cell number
[2] = measured here: IkBa-CBG green luminescence

| Structure (SMILES) | AC50 [1] | AC50 [2] |
| --- | --- | --- |
| CCCCCCCCCCOC(=O)Cn1c(COc2ccccc2)[n+](C)c2ccccc21 | 25.1 µM [falling, single point] | – |
| COC(=O)c1c(-c2ccccc2)csc1NC(=O)c1c(-c2ccccc2)noc1C | 0.00411 µM [falling, full curve, poor fit] | – |
| Cc1cccc(NC(=O)CSc2nc3[nH]ncc3c(=O)[nH]2)c1 | 10.3 µM [falling, partial curve] | – |
| Cc1[nH]c2c(C)cccc2c(=O)c1Br | 3.66 µM [falling, partial curve] | 2.31 µM [rising, partial curve, poor fit] |
| CN(CCC#N)C(=O)CSc1ncnc2sc(-c3ccccc3)cc12 | 20 µM [falling, single point] | – |
| CCC(=O)Nc1nc(-c2ccc3c(c2)CC(C)N3S(C)(=O)=O)cs1 (centres undefined) | 11.2 µM [rising, partial curve, poor fit] | – |
| CCOC(=O)Cc1nnc(Nc2ccc(C(=O)NC)cc2)c2ccccc12 | 6.31 µM [falling, partial curve] | – |
| COc1c(O)cc2oc(-c3ccc(O)c(O)c3)cc(=O)c2c1O | 8.91 µM [falling, partial curve, poor fit] | – |
| COc1ccc(NC(=S)NCCN2CCC(C)CC2)cc1Cl | 35.5 µM [falling, single point] | – |
| CCOc1cc(S(=O)(=O)NCc2ccccn2)ccc1Cl | 0.103 µM [falling, full curve, poor fit] | – |
| Cc1ccc(S(=O)(=O)Oc2cccc(/C=N/Nc3ccc(C(=O)O)cc3)c2)cc1 | 5.62 µM [falling, partial curve] | – |
| O=C(Nc1ccc(Cl)c(Cl)c1)N1CCCCCC1 | 7.08 µM [falling, full curve] | – |
| O=C(CSC(=S)N1CCCC1)Nc1cc2c(cc1Br)OCCO2 | 17.8 µM [falling, single point] | – |
| CC12CCC(=O)N1C(C(=O)OCC(=O)Nc1cc(S(=O)(=O)N3CCCCC3)ccc1Cl)CS2 (centres undefined) | 23.1 µM [rising, single point] | – |
| Cc1cc(C(=O)Nc2ccc([N+](=O)[O-])cn2)cs1 | 14.1 µM [falling, single point] | – |
| Cc1cc(C)n(-c2nc(Nc3ccccc3C(F)(F)F)nc(-n3nc(C)cc3C)n2)n1 | 18.4 µM [falling, partial curve] | 18.4 µM [rising, partial curve] |
| Cc1ccc2c(c1)c1nnc(SCC(=O)Nc3ccccc3C(F)(F)F)nc1n2CC(=O)O | 22.4 µM [falling, single point] | – |
| O=C(Nc1ccccc1)Nc1ccno1 | 31.6 µM [falling, single point] | – |
| Cc1onc(-c2ccccc2)c1C(=O)Nc1nnc(-c2ccncc2)s1 | 23.1 µM [falling, single point] | – |
| CCCCN(C(=O)c1cc(OC)c(OC)c(OC)c1)C1=CC2CCC(C1)N2C (centres undefined) | 11.2 µM [rising, partial curve, poor fit] | – |

2 of the compounds above, bar-delimited:
Structure (SMILES) | AC50 [1] | AC50 [2]
CN(CCC#N)C(=O)CSc1ncnc2sc(-c3ccccc3)cc12 | 20 µM [falling, single point] | –
CCC(=O)Nc1nc(-c2ccc3c(c2)CC(C)N3S(C)(=O)=O)cs1 (centres undefined) | 11.2 µM [rising, partial curve, poor fit] | –

Following part

| Structure (SMILES) | AC50 [1] | AC50 [2] |
| --- | --- | --- |
| C=CCn1c(SCc2ccc(Cl)c(Cl)c2)nnc1C(CO)NC(=O)c1ccc(OC)cc1 (centres undefined) | 2.06 µM [rising, partial curve, poor fit] | – |
| Cc1cc(C)c(S(=O)(=O)N2CCN=C2c2ccccc2)c(C)c1 | 0.731 µM [rising, full curve, poor fit] | – |
| O=C(NN=C1CCCC1)c1cccc(Br)c1 | 17.8 µM [falling, single point] | – |
| NC(=O)c1ccccc1N/C=C/C(=O)c1ccco1 | 5.17 µM [falling, full curve] | 3.66 µM [rising, partial curve, poor fit] |
| COc1ccc(-c2noc(-c3ccc(Br)o3)n2)cc1OC | 1.64 µM [rising, partial curve, poor fit] | – |
| CCNc1cc(O)ccc1C | 11.6 µM [falling, single point] | – |
| COc1cccc(NC(=O)CNC(=O)c2ccccc2)c1 | 0.231 µM [rising, full curve, poor fit] | – |
| COc1ccc(NC(=O)C2CCN(C(=O)C3CC(=O)N(c4ccc(C)cc4)C3)CC2)cc1 (centres undefined) | 35.5 µM [rising, partial curve, poor fit] | – |
| CC1CCc2c(sc(Nc3nc4c(F)cccc4s3)c2C(N)=O)C1 (centres undefined) | 29.1 µM [falling, single point] | – |
| Nc1ncnc2c1ncn2[C@@H]1O[C@H](CNCc2ccccc2OCc2ccc(Cl)cc2Cl)[C@@H](O)[C@H]1O | 29.1 µM [falling, single point] | – |
| COc1ccccc1/C=C/C(=O)Nc1ccc(N2CCOCC2)cc1 | 1.58 µM [falling, full curve, poor fit] | – |
| COC(=O)c1ccc(N=NNc2ccccc2)cc1 | 10.3 µM [falling, partial curve, poor fit] | – |
| O=[N+]([O-])c1ccc(O)c(C=Nc2ccc3c(c2)OCCO3)c1 | 8.2 µM [falling, partial curve] | – |
| NC(=O)CCn1c(C(=O)c2cc(Cl)c(N)c(Cl)c2)c2ccccc2[n+]1[O-] | 3.98 µM [rising, partial curve, poor fit] | – |
| CCOC(=O)c1csc(-c2snnc2C)n1 | 12.6 µM [rising, partial curve] | – |
| Cc1cccc(N2C(=O)CS/C2=N\NC(=O)c2ccc(Cl)cc2)c1C | 1.84 µM [falling, full curve, poor fit] | – |
| COc1cccc(C(=O)NNC(=O)/C=C/c2ccccc2)c1 | 0.891 µM [falling, full curve] | – |
| COc1ccc(CCn2c(C(C)C)nc3oc4ccccc4c(=O)c3c2=O)cc1 | 11.2 µM [falling, partial curve, poor fit] | – |
| CC(=O)Cn1ncc(N2CCOCC2)cc1=O | 7.94 µM [falling, partial curve, poor fit] | – |
| CCn1c2ccccc2c2cc(NC(=O)c3ccccc3-c3ccccc3C(=O)O)ccc21 | 31.6 µM [rising, single point] | 35.5 µM [falling, partial curve, poor fit] |
